Patent US9671412B2, “Beclin 1 phosphorylation” (Board of Regents, The University of Texas System, priority 2012, dated 2017)

System: HCC827 NSCLC xenografts
Assay: TTF-1 staining of HCC827 xenografts expressing Beclin 1 constructs
Type: in vivo, mouse
Details: pathological score

“Beclin 1: wild-type human Beclin 1, essential autophagy and tumor suppressor protein; expressed in cells” was tested, and the “xenografts strongly positive for TTF-1” value was 10/10.

For “Flag-Beclin 1 EEE: Flag-Beclin 1 with three phosphomimetic mutations Y229E/Y233E/Y352E”, the “xenografts moderately positive for TTF-1” value was 3/10 and the “xenografts weakly positive for TTF-1” value was 7/10.

With “Flag-Beclin 1 FFF: Flag-Beclin 1 with three non-phosphorylatable mutations Y229F/Y233F/Y352F” the “xenografts strongly positive for TTF-1” value was 10/10.
